Experimental data reported in PubChem BioAssay AID493014 (National Center for Advancing Translational Sciences (NCATS), 2011).
This is one part of the list. Shown are side measurements of this screen, not its main read-out; they come without a call. The list favours compounds with an active or inconclusive main result. Potencies come from curve fits of mixed quality, noted in brackets.

Test: qHTS Assay to Find Inhibitors of Chronic Active B-Cell Receptor Signaling
Conditions: ABC-DLBCL IkBa-CBG/CBR reporter, luminescence ratio (green luciferase fused to IkBa over red control in TMD8 lymphoma cells), 4 h
Source text: NIH Molecular Libraries Probe Production Network [MLPCN] NIH Chemical Genomics Center [NCGC] MLPCN Grant: 1 R03 DA031086-01A1 PI Name: Dr. R. Eric Davis NCGC Assay Overview: Diffuse large B-cell lymphoma (DLBCL) is the most common category of non-Hodgkin lymphoma, with ~20,000 new cases per year in the United States. DLBCL should be regarded as a collection of different neoplasms. Microarray gene expression analysis has defined two principal types of DLBCL, named for their similarity to normal B cell stages or activation states: a germinal center B-cell (GCB) type, and an activated B-cell (ABC) type. In ABC-DLBCL, a constitutive high-level activity of the NF-kappaB family of transcription factors has been observed (1) and NF-kappaB target genes are more highly expressed in ABC primary tumors than in GCB tumors. Functional studies have shown a constitutive high-level activity of the IkappaB (inhibitor of kappa-B) kinase (IKK) complex. […] Further analysis of DLBCL primary tumors for NF-kappaB target gene expression imply that although CARD11 is required for constitutive IKK activity in all ABC-DLBCL lines, mutations in CARD11 may be the root cause of IKK activation only in lines or tumors with such mutations. In other words, CARD11 mutations may explain NF-kappaB activation in only 10% of ABC-DLBCL cases. […] This process has been termed 'chronic active BCR signaling' (CABS). The goal of this screen is to find small-molecule inhibitors of the CABS pathway found in ABC-DLBCL lines using a cell-based assay that measures IkappaBalpa stability, which has already been extensively validated in the OCI-Ly3 line (PubChem AID:445; REF: 4). […] The assay uses green (CBG68) and red (CBR) emitting beetle luciferases [Chroma-GloTM developed by Promega Corp.] where the green luciferase is fused to IkappaBalpha and the red luciferase is present in its native state. Both luciferase genes are stably present in the TMD8 human ABC DLBCL cell line, but their expression is under the control of tetracycline-inducible promoters. Following the addition of doxycycline to induce expression of the luciferases, the green luminescence in control cultures rises only slowly because the CBG fusion partner IkappaBalpha is targeted by IKK activity for rapid degradation. In contrast, green luminescence rises rapidly in the presence of proteasome inhibitors or IKK inhibitors. The rise in red luminescence of CBR is not affected by proteasome or IKK inhibitors, and serves as normalization for cell number and nonspecific effects. Compounds were screened as a concentration-titration series that ranged from 46 uM to 3 nM.
NCGC Assay Protocol Summary: Cells were seeded in 1536-well plates at 5000 cells/4uL in IMDM medium containing 0.5% FBS, w/o phenol red, 1% penicillin/streptomycin. Then, 23 nL of compounds or DMSO were delivered to each well using a pin tool. One uL 20ng/ml doxycycline was then dispensed into white solid 1536-well plates and the plates were incubated at 37C/5% C02 in a cell incubator for 4 hrs. Then 4 uL luminescent substrate mix (in-house prepared: 150 mM Tris-Cl, pH 7.6, 3 mM MgCl2, 1% Triton X-100, 5 mM DTT, 0.2 mM CoA, 0.15 mM ATP, 5 mM D-luciferin, final concentrations) was added to each well. The plate was incubated at r.t. for 10-15 min. The plates were measured on a ViewLux plate reader for green luminescence (540/20 nm filter) and red luminescence (618/8 nm filter). The green and red luminescent signals were corrected for red and green luminescence filter overlap using previously determined filter calibration constants (determined using the procedure outlined in the Promega Technical Manual; REF 4). The %Activity was determined from the ratio of corrected green/red luminescent values. MG132 were used as control. […] Red luminescent %Activity was normalized to the difference between red luminesence in basal cells (0%Activity) and zero luminescence (-100% Activity). […]

[1] = measured here: IkBa-CBG green luminescence
[2] = measured here: CBR red luminescence, cell number

Row | Compound | AC50 [1] | AC50 [2]
1 | O=C(Nc1nccs1)c1ccc(Br)o1 | 5.8 µM [rising, full curve] | –
2 | COc1ccccc1C(=O)Nc1nc2ccccc2s1 | – | 35.5 µM [falling, partial curve, poor fit]
3 | CC1CCC2(CC1)SCC(=O)N2c1ccc(F)cc1 (configuration not stated) | – | 1.58 µM [falling, partial curve, poor fit]
4 | O=C(O)CS/C(=C\c1ccc(F)cc1)c1nc2ccccc2s1 | – | 15.8 µM [falling, partial curve, poor fit]
5 | COC(=O)NC(=S)Nc1ccc(Oc2ccc(Cl)cc2Cl)c(Cl)c1 | – | 29.1 µM [rising, single point]
6 | COc1ccc(CNC(=O)CSc2nnc(Cn3nnc4ccccc43)n2C)cc1 | – | 29.1 µM [falling, single point]
7 | Cc1cc(OCC(=O)Nc2cccc(S(=O)(=O)NC3=NCCCCC3)c2)ccc1Cl | – | 10.3 µM [falling, partial curve, poor fit]
8 | O=Cc1cccc(Oc2ccc([N+](=O)[O-])cc2[N+](=O)[O-])c1 | 35.5 µM [falling, single point] | 14.1 µM [falling, single point]
9 | Cc1[nH]nc2c1C(c1cccs1)C(C#N)=C(N)O2 (configuration not stated) | – | 11.2 µM [falling, partial curve]
10 | O=C(CCCc1nc(-c2ccccc2Cl)no1)NC1CCCCC1 | – | 1.64 µM [rising, full curve, poor fit]
11 | CCc1cc(C(=O)Cc2cnn(-c3ccccc3)c2)c(O)cc1O | – | 3.55 µM [rising, full curve, poor fit]
12 | C/C(=N/NC(=O)CSc1ccccn1)c1ccc([N+](=O)[O-])cc1 | – | 25.9 µM [rising, single point]
13 | CCN1/C(=C/c2ccc3ccc(C)cc3[n+]2CC)Sc2ccccc21 | 23.1 µM [rising, partial curve, poor fit] | –
14 | CCc1nc(C)cn1S(=O)(=O)c1cc(Br)ccc1OC | – | 6.31 µM [falling, full curve, poor fit]
15 | CCOC(=O)c1c(C)nn(-c2ccc(NC(=O)c3cccs3)cc2)c1C | – | 35.5 µM [falling, single point]
16 | Clc1ccc(C2=NNC(=NCC3CCCO3)SC2)cc1 (configuration not stated) | 20.6 µM [falling, single point] | 16.4 µM [falling, single point]
17 | CCOc1ccccc1Nc1ccc(C(=O)O)cc1[N+](=O)[O-] | 12.6 µM [rising, partial curve, poor fit] | –
18 | C=CCn1c(SCc2ccc(F)cc2)nnc1-c1sc2nc(C)cc(C)c2c1N | – | 17.8 µM [rising, single point]
19 | CCC1CCCCN1S(=O)(=O)c1ccc(NC(=O)C2CCN(C(=O)c3ccco3)CC2)cc1 (configuration not stated) | – | 5.01 µM [rising, single point]
20 | COc1ccc(C(=O)COC(=O)/C=C/c2ccccc2)c(OC)c1 | – | 5.8 µM [rising, full curve]
21 | COc1cc(Cl)cc(/C=C/c2ccc3cccc(O)c3n2)c1OC | – | 12.6 µM [rising, partial curve, poor fit]
22 | COc1ccccc1NS(=O)(=O)c1cccc(NC(=O)c2ccc3ccccc3n2)c1 | – | 0.146 µM [rising, full curve, poor fit]

Row | Compound | AC50 [1] | AC50 [2]
23 | c1ccc(-c2noc(CN3CCN(c4cnccn4)CC3)n2)cc1 | – | 0.224 µM [rising, full curve, poor fit]
24 | O=C(CSc1nc2[nH]c(=O)cc(O)c2s1)Nc1nccs1 | – | 29.1 µM [rising, single point]
25 | O=C(c1ccncc1)N1N=C(c2ccc(Cl)cc2)CC1c1ccccc1O (configuration not stated) | – | 0.126 µM [falling, full curve]
26 | COC(=O)CNC(c1ccccc1)c1cc(C)ccc1NC(=O)CNC(=O)OCc1ccccc1 (configuration not stated) | – | 8.2 µM [falling, partial curve]
27 | O=C(c1cccs1)N1CCN(C/C=C/c2ccccc2)CC1 | – | 18.4 µM [rising, partial curve, poor fit]
28 | CCCNC(=O)COC(=O)/C=C/c1ccco1 | – | 0.00411 µM [falling, full curve, poor fit]
29 | Cc1cccc(-c2ccc3ncnc(NCc4cccs4)c3c2)c1 | – | 32.6 µM [falling, single point]
30 | CCCCCOc1ccc(C(=O)N(Cc2ccccc2)C2CCS(=O)(=O)C2)cc1 (configuration not stated) | – | 6.31 µM [rising, single point]
31 | Cc1ccc(-n2c(SCC(=O)NCCN3C(=O)CSC3=O)nnc2-c2cccc(C)c2)cc1 | – | 0.146 µM [rising, full curve, poor fit]
32 | Cc1ccccc1NC(=O)NC(N)=O | – | 0.224 µM [rising, full curve, poor fit]
33 | N#Cc1cccc(NC(=O)NCCc2c[nH]c3ccccc23)c1 | – | 0.092 µM [rising, full curve, poor fit]
34 | COc1ccccc1CN(C)C(=O)c1ccc(S(=O)(=O)Nc2c(C)n(C)n(-c3ccccc3)c2=O)cc1 | – | 29.1 µM [rising, single point]
35 | O=C(CSc1nnc(Cc2ccccc2)o1)Nc1ccc(N2CCOCC2)cc1 | – | 6.51 µM [rising, partial curve, poor fit]
36 | Cc1csc(NC(=O)C(Cc2ccccc2)n2cccc2)n1 (configuration not stated) | 18.4 µM [rising, partial curve, poor fit] | –
37 | Cn1c(=O)c2c(nc(SCC(=O)Nc3ccccc3)n2C)n(C)c1=O | – | 5.8 µM [falling, single point]
38 | O=C(CSCc1ccc(Cl)cc1)NCCSCc1ccco1 | – | 15.8 µM [falling, single point]
39 | Cc1noc(C)c1S(=O)(=O)N(C)C[C@H]1Oc2ccc(NC(=O)CCC(F)(F)F)cc2C(=O)N([C@H](C)CO)C[C@@H]1C | – | 16.4 µM [rising, partial curve, poor fit]
40 | Cc1cc(NC(=O)CCC(=O)N(c2ccccc2)C(C(=O)NCC2CCCO2)c2cccnc2)no1 (configuration not stated) | – | 14.1 µM [falling, single point]
41 | Cn1cc(CN2CCN(Cc3cccnc3)CC2)c(-c2ccc3c(c2)OCCO3)n1 | – | 15.8 µM [falling, partial curve, poor fit]
42 | CCOc1ccccc1NC(=O)COC(=O)c1c[nH]c2ccccc12 | – | 0.411 µM [falling, full curve]
43 | c1ccc(NC2=Nc3ccccc3CS2)cc1 | – | 0.112 µM [rising, full curve]
44 | COCCCNC(=O)c1c(N)n(/N=C/c2cccnc2)c2nc3ccccc3nc12 | 16.4 µM [rising, partial curve, poor fit] | 20.6 µM [falling, partial curve]

Single values from the entries so far.
In AC50 [2], O=C(c1ccncc1)N1N=C(c2ccc(Cl)cc2)CC1c1ccccc1O (configuration not stated) has the entry 0.126 µM [falling, full curve]
In AC50 [2], N#Cc1cccc(NC(=O)NCCc2c[nH]c3ccccc23)c1 has the entry 0.092 µM [rising, full curve, poor fit]
In AC50 [2], COC(=O)CNC(c1ccccc1)c1cc(C)ccc1NC(=O)CNC(=O)OCc1ccccc1 (configuration not stated) has the entry 8.2 µM [falling, partial curve]
In AC50 [2], Cc1cccc(-c2ccc3ncnc(NCc4cccs4)c3c2)c1 has the entry 32.6 µM [falling, single point]
In AC50 [2], Cc1cc(NC(=O)CCC(=O)N(c2ccccc2)C(C(=O)NCC2CCCO2)c2cccnc2)no1 (configuration not stated) has the entry 14.1 µM [falling, single point]

Next records follow.

Row | Compound | AC50 [1] | AC50 [2]
45 | Cc1ccc(/C=N/N=C/c2ccc(C)cc2)cc1 | – | 2.06 µM [rising, partial curve, poor fit]
46 | Cc1cccc(C(=O)Nc2ccc(N3CCC(CCN4CCOCC4)CC3)c(C(=O)O)c2)c1 | – | 7.08 µM [rising, partial curve]
47 | S=c1nc(C2CC2)n(-c2ccccc2)[nH]1 | – | 2.82 µM [falling, full curve, poor fit]
48 | Cc1ccc(O)c(-c2cc(C(=O)Nc3c(C)n(C)n(-c4ccccc4)c3=O)[nH]n2)c1 | – | 18.4 µM [falling, partial curve, poor fit]
49 | COc1ccc(C(=O)Nc2nc(C)cs2)cc1S(=O)(=O)N1CCCC1 | – | 0.891 µM [falling, full curve, poor fit]
50 | CCOC(=O)Cc1[nH]nc2c1C(C1C=CCCC1)C(C#N)=C(N)O2 (configuration not stated) | – | 8.91 µM [falling, partial curve]
51 | N/C(=N\OC(=O)c1ccc(Cl)cc1Cl)c1ccccn1 | – | 11.2 µM [falling, partial curve]
52 | CC(=O)Nc1ccc(OCc2nnc(-c3ccc(Cl)cc3)o2)cc1 | – | 11.2 µM [rising, partial curve, poor fit]
53 | COc1cccc(-c2cc(C(F)(F)F)nc(-n3cc(C)cn3)n2)c1 | – | 35.5 µM [falling, single point]
54 | O=c1cc(NCc2ccccc2)nc2ccccn12 | – | 14.1 µM [falling, single point]
55 | COc1cccc(NC(=O)COc2ccccc2C(N)=O)c1 | – | 16.4 µM [falling, partial curve]
56 | Cc1cc(C)c2c(c1)N[C@H](c1cccs1)[C@@H]1CCO[C@H]21 | – | 0.562 µM [rising, full curve, poor fit]
57 | CN(C)c1ccc(/C=N/NC(=O)c2ccnn2C)cc1 | – | 1 µM [falling, full curve]
58 | CCN(CC)c1nc2ccccc2c(N)c1-c1ccccc1 | – | 35.5 µM [falling, single point]
59 | Cc1cc(=O)[nH]c(N/N=C/c2c[nH]c3ccccc23)n1 | – | 7.08 µM [falling, partial curve]
60 | COc1ccc(Br)cc1CN(C)CC(=O)Nc1cccc(S(=O)(=O)N2CCCC2)c1 | – | 23.1 µM [falling, single point]
61 | Cc1ccc2occ(/C=N/NC(=O)c3ccccc3C)c(=O)c2c1 | – | 17.8 µM [falling, partial curve]
62 | Cc1cc2ccc3ccccc3c2cc1CN(C)C | – | 11.2 µM [falling, partial curve, poor fit]
63 | CCN1CCN(C(=S)NC(=O)c2cc(OC)c(OC)c(OC)c2)CC1 | – | 4.11 µM [rising, full curve, poor fit]
64 | Cc1noc(C)c1COc1cccc(C(=O)Nc2ccc(OCc3ccccc3)cc2)c1 | – | 5.01 µM [falling, partial curve, poor fit]
